The results in this text go back to article PMC12638999.

The chains behind the UniProt entries cited, without tags or fusion partners. Where a name states a change or a piece, a line headed by the entry shows the natural chain unless it says otherwise.
UniProt P06733: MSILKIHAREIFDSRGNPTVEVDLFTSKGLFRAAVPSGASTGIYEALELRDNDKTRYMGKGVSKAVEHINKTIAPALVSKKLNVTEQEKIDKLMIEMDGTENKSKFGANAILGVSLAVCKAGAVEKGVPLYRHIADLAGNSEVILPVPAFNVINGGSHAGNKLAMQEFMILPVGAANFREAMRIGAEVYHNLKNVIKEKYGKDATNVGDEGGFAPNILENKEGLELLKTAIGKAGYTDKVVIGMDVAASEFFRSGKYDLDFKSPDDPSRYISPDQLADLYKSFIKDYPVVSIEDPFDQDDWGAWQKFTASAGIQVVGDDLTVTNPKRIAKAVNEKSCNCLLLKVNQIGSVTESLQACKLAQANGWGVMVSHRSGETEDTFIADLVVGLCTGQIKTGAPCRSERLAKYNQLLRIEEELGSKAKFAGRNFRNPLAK

Results are given in words; binding and its absence hold for the method and conditions named. For some of these results: In cells and extracts the contact can be indirect. Some results given as binding are weak or reduced against the parent protein; the word gives no strength. For some of these results: Sequences can lack the tags named with a protein.

Assay [1] concerns the target T1, UCHL3 (179-230 AA) fragment (UniProt P15374).
T1 sequence: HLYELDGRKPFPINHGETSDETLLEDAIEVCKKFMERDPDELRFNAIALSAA
Briefly: co-IP; truncated plasmids of UCHL3 and ENO1; immunoprecipitation to find the binding region.

Assay [2] deals with T2, UCHL3, endogenous in HGC-27 cells (human (endogenous in HGC-27)) (UniProt P15374).
T2 sequence: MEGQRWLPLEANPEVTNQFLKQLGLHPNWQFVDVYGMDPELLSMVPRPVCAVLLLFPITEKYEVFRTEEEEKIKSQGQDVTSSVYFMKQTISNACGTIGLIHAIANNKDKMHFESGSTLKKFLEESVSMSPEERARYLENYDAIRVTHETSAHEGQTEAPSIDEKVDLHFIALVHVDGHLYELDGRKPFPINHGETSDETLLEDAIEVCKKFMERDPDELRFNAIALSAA
Briefly: co-IP; endogenous: total protein of HGC-27 cells incubated with specific antibodies overnight, captured on Protein A/G beads.

Assay [3] concerns the target T3, Flag-UCHL3 (ubiquitin carboxyl-terminal hydrolase L3) (UniProt P15374).
T3 sequence: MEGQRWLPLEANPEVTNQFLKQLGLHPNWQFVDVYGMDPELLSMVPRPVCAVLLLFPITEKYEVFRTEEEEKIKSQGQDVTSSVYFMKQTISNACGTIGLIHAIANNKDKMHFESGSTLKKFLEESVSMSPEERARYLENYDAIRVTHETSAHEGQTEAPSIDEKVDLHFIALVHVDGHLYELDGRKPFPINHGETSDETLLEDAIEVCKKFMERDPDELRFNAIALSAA
Briefly: co-IP; exogenous: Flag-UCHL3 and HA-ENO1 plasmids transfected into HEK-293T cells; anti-DYKDDDDK or anti-HA magnetic beads; SDS-PAGE and blot.

Assay [4] addresses GST-ENO1 fusion protein (Proteintech Ag1692) (UniProt P06733). The assay can be described thus: pull-down; His-UCHL3 and GST-ENO1 incubated in binding buffer at 4 °C overnight, then anti-GST magnetic beads for 4 h; SDS-PAGE, Coomassie Brilliant Blue staining; both purified.

With “ENO1 (140-434 AA) fragment (from UniProt P06733 140-434) (domain or fragment)”, the binding result in assay [1] is recorded as “binds”.
Regarding “ENO1, endogenous in HGC-27 cells (from UniProt P06733 1-434)”, the binding result in assay [2] is reported as “binds”.
Consider HA-ENO1 (from UniProt P06733 1-434), for which the binding result in assay [3] is “binds”.

B1: His-UCHL3 fusion protein (Proteintech Ag32925) (enzyme, UniProt P15374 1-230)
chain: MEGQRWLPLEANPEVTNQFLKQLGLHPNWQFVDVYGMDPELLSMVPRPVCAVLLLFPITEKYEVFRTEEEEKIKSQGQDVTSSVYFMKQTISNACGTIGLIHAIANNKDKMHFESGSTLKKFLEESVSMSPEERARYLENYDAIRVTHETSAHEGQTEAPSIDEKVDLHFIALVHVDGHLYELDGRKPFPINHGETSDETLLEDAIEVCKKFMERDPDELRFNAIALSAA
For B1, the binding entry in assay [4] was “binds”.
